Measurements reported in article PMC10613268, “Shade-induced RTFL/DVL peptides negatively regulate the shade response by directly interacting with BSKs in Arabidopsis” (Nature Communications, 2023).
Results are given in words; binding and its absence hold for the method and conditions named. In cells and extracts the contact can be indirect. A yes stands for co-enrichment or nearness to the bait. Other partners may have been found. Where a sequence is shown, tags or fusion partners need not be part of it.

Protein sequences, listed by entry. Tags and fused reporters are not part of them.
UniProt Q39026: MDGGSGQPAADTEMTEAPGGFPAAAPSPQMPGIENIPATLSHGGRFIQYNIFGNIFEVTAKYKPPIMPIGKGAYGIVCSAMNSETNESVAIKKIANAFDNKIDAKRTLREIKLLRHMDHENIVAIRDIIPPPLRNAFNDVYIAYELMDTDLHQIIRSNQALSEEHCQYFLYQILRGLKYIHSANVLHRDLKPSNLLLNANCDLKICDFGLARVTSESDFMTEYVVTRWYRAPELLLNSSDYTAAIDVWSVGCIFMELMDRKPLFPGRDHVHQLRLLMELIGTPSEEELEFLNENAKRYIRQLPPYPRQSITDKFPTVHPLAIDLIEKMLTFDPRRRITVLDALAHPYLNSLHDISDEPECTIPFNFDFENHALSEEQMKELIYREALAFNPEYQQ

T1: Flag-tagged RTFL18 (transgenic lines used for IP-MS) (Arabidopsis) (UniProt Q6X5V0)
T1 sequence: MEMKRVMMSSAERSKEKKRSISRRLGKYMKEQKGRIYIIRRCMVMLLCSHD


Biological target: T1, Flag-tagged RTFL18 (transgenic lines used for IP-MS) (Arabidopsis)
Assay: affinity purification with mass spectrometry; IP-MS using Flag-tagged RTFL18 transgenic Arabidopsis lines

binding | Molecule
binds | MAPK6 (from UniProt Q39026 1-395)
binds | MAPK3 (protein, UniProt Q39023 1-370) MNTGGGQYTDFPAVETHGGQFISYDIFGSLFEITSKYRPPIIPIGRGAYGIVCSVLDTETNELVAMKKIANAFDNHMDAKRTLREIKLLRHLDHENIIAIRDVVPPPLRRQFSDVYISTELMDTDLHQIIRSNQSLSEEHCQYFLYQLLRGLKYIHSANIIHRDLKPSNLLLNANCDLKICDFGLARPTSENDFMTEYVVTRWYRAPELLLNSSDYTAAIDVWSVGCIFMELMNRKPLFPGKDHVHQMRLLTELLGTPTESDLGFTHNEDAKRYIRQLPNFPRQPLAKLFSHVNPMAIDLVDRMLTFDPNRRITVEQALNHQYLAKLHDPNDEPICQKPFSFEFEQQPLDEEQIKEMIYQEAIALNPTYG
binds | MAPKK5 (protein, UniProt Q8RXG3 1-348) MKPIQSPSGVASPMKNRLRKRPDLSLPLPHRDVALAVPLPLPPPSSSSSAPASSSAISTNISAAKSLSELERVNRIGSGAGGTVYKVIHTPTSRPFALKVIYGNHEDTVRRQICREIEILRSVDHPNVVKCHDMFDHNGEIQVLLEFMDQGSLEGAHIWQEQELADLSRQILSGLAYLHRRHIVHRDIKPSNLLINSAKNVKIADFGVSRILAQTMDPCNSSVGTIAYMSPERINTDLNHGRYDGYAGDVWSLGVSILEFYLGRFPFAVSRQGDWASLMCAICMSQPPEAPATASQEFRHFVSCCLQSDPPKRWSAQQLLQHPFILKATGGPNLRQMLPPPRPLPSAS
